Experimental findings from publication PMC8782983 are described below.

Sequences of proteins named here, by UniProt entry; tags and fusion partners are left off.
UniProt Q9GZV4: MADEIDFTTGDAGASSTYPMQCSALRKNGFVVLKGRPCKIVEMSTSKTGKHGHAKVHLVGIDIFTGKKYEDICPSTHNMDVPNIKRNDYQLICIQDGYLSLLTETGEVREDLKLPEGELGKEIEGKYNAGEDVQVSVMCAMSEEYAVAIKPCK

For this assay, the target named is T1, HERC3-Flag (HECT and RLD domain containing E3 ubiquitin-protein ligase 3) (UniProt Q15034).
T1 sequence: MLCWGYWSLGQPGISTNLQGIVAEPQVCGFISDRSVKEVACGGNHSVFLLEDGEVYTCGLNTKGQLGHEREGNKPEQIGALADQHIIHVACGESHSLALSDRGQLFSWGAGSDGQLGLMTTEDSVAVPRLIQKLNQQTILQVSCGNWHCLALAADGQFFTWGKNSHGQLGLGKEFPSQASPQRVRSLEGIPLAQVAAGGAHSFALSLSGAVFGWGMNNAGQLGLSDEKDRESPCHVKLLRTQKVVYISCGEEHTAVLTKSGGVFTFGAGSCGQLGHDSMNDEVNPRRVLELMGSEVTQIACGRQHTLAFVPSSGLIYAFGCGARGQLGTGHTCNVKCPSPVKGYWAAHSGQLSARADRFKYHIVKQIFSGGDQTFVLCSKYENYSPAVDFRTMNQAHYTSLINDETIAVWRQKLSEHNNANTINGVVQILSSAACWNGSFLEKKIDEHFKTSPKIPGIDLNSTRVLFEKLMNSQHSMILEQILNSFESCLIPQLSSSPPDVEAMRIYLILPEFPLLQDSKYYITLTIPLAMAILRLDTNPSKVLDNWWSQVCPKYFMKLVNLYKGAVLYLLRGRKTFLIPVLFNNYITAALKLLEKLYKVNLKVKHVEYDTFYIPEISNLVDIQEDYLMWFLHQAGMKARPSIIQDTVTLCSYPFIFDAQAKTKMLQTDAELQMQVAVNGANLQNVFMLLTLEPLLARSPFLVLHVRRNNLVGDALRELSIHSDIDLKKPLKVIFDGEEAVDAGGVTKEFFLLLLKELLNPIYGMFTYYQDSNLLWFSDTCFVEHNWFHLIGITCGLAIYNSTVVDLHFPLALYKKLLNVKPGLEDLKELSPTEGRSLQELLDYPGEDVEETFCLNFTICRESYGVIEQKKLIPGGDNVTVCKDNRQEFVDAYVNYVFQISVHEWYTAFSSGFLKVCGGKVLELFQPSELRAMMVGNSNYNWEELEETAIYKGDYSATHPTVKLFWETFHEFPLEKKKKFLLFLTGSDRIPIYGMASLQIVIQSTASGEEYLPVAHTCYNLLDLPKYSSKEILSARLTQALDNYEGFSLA
Kind of assay: affinity purification with mass spectrometry; HERC3-Flag transfected into HCT116 cells, harvested after 48 h; lysates enriched with anti-Flag affinity gels, eluted in 8 M urea buffer, mass spectrometry.

No constants are given. Whether binding was seen depends on the method and setting. In cells and extracts the contact can be indirect. Here binding means that the protein was enriched with, or labelled near, the bait; the list need not be complete. Sequences can lack the tags named with a protein.

In the case of “EIF5A2, endogenous (from UniProt Q9GZV4 1-153)”, the binding entry is given as “binds”.
